Laboratory results as given in the supplement of paper PMC7877785.
± gives the uncertainty stated by the source. Many entries were measured with a wide error.

Assay: self-splicing fitness, log relative to wild type (ln ratio); higher = more splicing; Tetrahymena group I intron in knt gene, E. coli kanamycin selection, DiMSum; sequences stand for … in CUCUCU…GGAGGGAAAAGUUAUCAGGCAUGCACCUGGUAGCUAGUCUUUAAACCAAUAGAUUGCAUCGGUUUAAAAGGCAAGACCGUCAAAUUGCGGGAAAGGGGUCAACAGCCGUUCAGUACCAAGUCUCAGGGGAAACUUUGAGAUGGCCUUGCAAAGGGUAUGGUAAUAAGCUGACGGACAUGGUCCUAACCACGCAGCCAAGUCCUAAGUCAACAGAUCUUCUGUUGAUAUGGAUGCAGUUCACAGACUAAAUGUCGGUCGGGGAAGAUGUAUUCUUCUCAUAAGAUAUAGUCGGACCUCUCCUUAAUGGGAGCUAGCGGAUGAAGUGAUGCAACACUGGAGCCGCUGGGAACUAAUUUGUAUGCGAAAGUAUAUUGAUUAGUUUUGGAGUACUCGUGGUCG
Summary of the method: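 Colonies from six replicate transformations of E. coli BL21(DE3) were pooled and amplicon-sequenced on an Illumina HiSeq 2500. The library placed an intron with all eight P1ex-region nucleotides randomised inside the knt kanamycin-resistance gene on pET-22b(+), and cells grew overnight at 37°C or 30°C on LB agar with or without 25 μg/mL kanamycin (plus 100 μg/mL carbenicillin, 50 μM IPTG, 0.2% rhamnose). Fitness is the DiMSum error-weighted combination of wild-type-normalised replicate fold changes, kanamycin versus none.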

Row | Sequence | self-splicing fitness (ln) (30 °C) | self-splicing fitness (ln) (37 °C)
1 | CCCGAGCAAUAUUACGCCCA | -4.02 ± 0.6 | -3.41 ± 0.52
2 | CCCUAGCAAUAUUACGUAUC | -4.76 ± 1 | 
3 | GGAUAGCAAUAUUACGGUAG | -4.26 ± 0.59 | 
4 | CUUCAGCAAUAUUACGCCAC |  | -1.37 ± 0.59
5 | CGAGAGCAAUAUUACGCUUU | -4.33 ± 1 | 
6 | GUGGAGCAAUAUUACGAGUU | -5.15 ± 0.72 | 
7 | AGUGAGCAAUAUUACGGGAA |  | -2.47 ± 0.55
8 | UGGGAGCAAUAUUACGGCCG | -2.82 ± 0.57 | 
9 | UUCAAGCAAUAUUACGGGCA | -0.666 ± 0.11 | 0.111 ± 0.1
10 | ACGGAGCAAUAUUACGGGAA | -4.37 ± 0.36 | -2.03 ± 0.31
11 | CUAUAGCAAUAUUACGAAGC | -3.98 ± 0.73 | -2.77 ± 0.75
12 | CUCUAGCAAUAUUACGCCGA | -3.42 ± 1 | -2.96 ± 0.75
13 | AAGCAGCAAUAUUACGCUCA | 0.661 ± 0.12 | -0.0809 ± 0.2
14 | UGCGAGCAAUAUUACGCAUC | -3.46 ± 1.1 | -2.44 ± 0.54
15 | UUGUAGCAAUAUUACGGGAG | -4.37 ± 0.59 | 
16 | GACCAGCAAUAUUACGCCCC | -1.35 ± 0.17 | -0.908 ± 0.17
17 | CUCGAGCAAUAUUACGAGCC | -3.66 ± 0.52 | 
18 | GUGGAGCAAUAUUACGGAUU |  | -3.23 ± 0.75
19 | UUGGAGCAAUAUUACGAGAG | -5.14 ± 1 | -1.83 ± 0.54
20 | CGGAAGCAAUAUUACGAACC | -0.987 ± 0.51 | 

Row | Sequence | self-splicing fitness (ln) (30 °C) | self-splicing fitness (ln) (37 °C)
21 | CAUGAGCAAUAUUACGCCCA |  | -2.71 ± 0.76
22 | UGGCAGCAAUAUUACGACGC | -4.78 ± 0.58 | 
23 | UAAGAGCAAUAUUACGCGGG | -3.49 ± 0.37 | -3.91 ± 0.36
24 | UUGUAGCAAUAUUACGUUAC | -3.84 ± 0.54 | 
25 | ACGGAGCAAUAUUACGCCUU | -3.46 ± 0.6 | -2.72 ± 0.75
26 | UCCUAGCAAUAUUACGACGC | -2.35 ± 0.17 | -2.02 ± 0.2
27 | CUAGAGCAAUAUUACGCUUU | -4.8 ± 1 | -3.31 ± 0.6
28 | CCAAAGCAAUAUUACGAUAC |  | -1.7 ± 0.59
29 | GGCAAGCAAUAUUACGCCCA | -1.95 ± 0.15 | -0.268 ± 0.12
30 | AAAGAGCAAUAUUACGUUUU | -2.46 ± 0.11 | -1.91 ± 0.12
31 | AUAUAGCAAUAUUACGCUAC |  | -2.01 ± 0.65
32 | ACUAAGCAAUAUUACGCCCA | -0.779 ± 0.11 | -0.482 ± 0.13
33 | CCGCAGCAAUAUUACGUCGC | -5.02 ± 0.72 | -3.08 ± 0.74
34 | GGGAAGCAAUAUUACGACCC | -3.88 ± 1.1 | 
35 | GGGGAGCAAUAUUACGGUGA |  | -2.61 ± 0.54
36 | UUAGAGCAAUAUUACGAAUU |  | -2.62 ± 0.63
37 | UAGAAGCAAUAUUACGAGGC | -3.06 ± 0.61 | 
38 | CGUCAGCAAUAUUACGCGUC |  | -2.91 ± 0.62
39 | AGUUAGCAAUAUUACGUUGA | -2.03 ± 0.31 | -2.02 ± 0.39
40 | UUCCAGCAAUAUUACGCCCU | -2.12 ± 0.68 | 

Row | Sequence | self-splicing fitness (ln) (30 °C) | self-splicing fitness (ln) (37 °C)
41 | CCGUAGCAAUAUUACGGGCA | -3.76 ± 0.42 | -2.14 ± 0.23
42 | UUUGAGCAAUAUUACGCGUA | -2.14 ± 0.57 | 
43 | UGAGAGCAAUAUUACGAAGC | -1.53 ± 0.66 | -2.44 ± 0.55
44 | GCCAAGCAAUAUUACGCCAC | -3.98 ± 0.73 | 
45 | CGGAAGCAAUAUUACGAGAC | -1.38 ± 0.6 | -3.36 ± 0.6
46 | GCCGAGCAAUAUUACGUUGA | -3 ± 0.16 | -2.88 ± 0.2
47 | UUCGAGCAAUAUUACGCAAA | -0.773 ± 0.28 | -1.92 ± 0.26
48 | UGCUAGCAAUAUUACGCCCC | -1.42 ± 0.54 | 
49 | UCGAAGCAAUAUUACGGCCC |  | -2.27 ± 0.63
50 | CCGGAGCAAUAUUACGACCA | -1.44 ± 0.52 | -1.79 ± 0.52
51 | AUAUAGCAAUAUUACGUAGG | -3.06 ± 0.21 | -0.744 ± 0.16
52 | GUCCAGCAAUAUUACGAGCU | -4.55 ± 0.58 | 
53 | GUCGAGCAAUAUUACGUGCC |  | -1.58 ± 0.88
54 | GUUCAGCAAUAUUACGGACG | -2.15 ± 0.11 | -0.428 ± 0.11
55 | CCUAAGCAAUAUUACGCUCG | -5.11 ± 0.72 | 
56 | UACGAGCAAUAUUACGAAGC | -2.71 ± 0.35 | -0.927 ± 0.34
57 | AUGGAGCAAUAUUACGGUGA |  | -2.86 ± 0.53
58 | UUUGAGCAAUAUUACGAGAG |  | -2.18 ± 1.1

Reformatted: results already given
Row,Sequence,self-splicing fitness (ln) (30 °C),self-splicing fitness (ln) (37 °C)
50,CCGGAGCAAUAUUACGACCA,-1.44 ± 0.52,-1.79 ± 0.52
52,GUCCAGCAAUAUUACGAGCU,-4.55 ± 0.58,
56,UACGAGCAAUAUUACGAAGC,-2.71 ± 0.35,-0.927 ± 0.34
